Assay results as given in article PMC12670160, “A drug-repurposing screen of FDA- and EMA-approved drugs identifies two NF-κB inhibitors active against eumycetoma” (Journal of Antimicrobial Chemotherapy, 2025).
Counter-ions that a name gives are not always drawn. In all, about 5,300 compounds went through this assay and about 130 (2.5%) showed an effect of 50% or more. This is one part of the list.

Each molecule was assayed on M. mycetomatis strain mm55. Details: primary screen, metabolic activity vs growth control; 96 h, 2 µM; inhibitor.

Compared with `CNC(=O)c1ccc(C)c(-n2c(C)cc(OCc3ccc(F)cc3F)c(Br)c2=O)c1` [ONC0005029, ph797804], `C[C@@H]1CN(Cc2ccc(F)cc2)[C@@H](C)CN1C(=O)c1cc2c(C(=O)C(=O)N(C)C)cn(C)c2cc1Cl` [ONC0002696, talmapimod] is lower in “% viability” value: 106% for the first, 73.55% for the second.

First: Cc1cc(OCc2nnc(SC3CCCC3)n2-c2cccnc2)ccc1-c1ccc(S(C)(=O)=O)cc1 [ONC0004377, nms873]
Second: C=CC(=O)Nc1cccc(Oc2nc(Nc3ccc(N4CCN(C)CC4)cc3)nc3ccsc23)c1 [ONC0001325, olmutinib]
The “% viability” value of the first is higher: 158.9% for the first, 84.69% for the second.

First: CCCCCCCCCCCCCCCC=O [ONC0003839, 1hexadecanal]
Second: CCCCCCCCCCCC[N+](C)(C)CCOc1ccccc1 [ONC0004564, domiphen bromide]
The “% viability” value of the first is lower: 62.25% for the first, 66.51% for the second.

Compared with `Cc1ccc(-n2nc(C(C)(C)C)cc2NC(=O)Nc2ccc(OCCN3CCOCC3)c3ccccc23)cc1` [ONC0004627, birb 796 doramapimod], `O=C(O)C1=CCCN(CCON=C(c2ccccc2)c2ccccc2)C1` [ONC0002475, nnc711] is higher in “% viability” value: 68.25% for the first, 101.1% for the second.

Going from `CC(C)NCC(O)c1ccccc1Cl` (stereo not drawn) [ONC0004642, clorprenaline hcl] to `CC(C(=O)O)c1ccc(C(=O)c2ccccc2)s1` (stereo not drawn) [ONC0005409, tiaprofenicacid], the “% viability” value falls from 103.7% to 96.41%.

First: NC(=O)c1cccc(N)c1 [ONC0003114, 3aminobenzamide]
Second: NC(=O)NS(=O)(=O)c1ccc(N)cc1 [ONC0005380, sulfacarbamide]
The “% viability” value of the first is lower: 100.4% for the first, 111.9% for the second.

Going from `C=CCSCC1Nc2cc(Cl)c(S(N)(=O)=O)cc2S(=O)(=O)N1` (stereo not drawn) [ONC0003797, althiazide] to `Cc1c(C(N)=O)cc([N+](=O)[O-])cc1[N+](=O)[O-]` [ONC0002846, dinitolmide], the “% viability” value rises from 64.29% to 91.36%.

Compared with `COc1cc2nc(N3CCC(N4CCCCC4)CC3)nc(NC3CCCCCC3)c2cc1OC` [ONC0000205, c021], `COc1cc(/C=C/C(=O)N2CCCCCCC2)cc(OC)c1OC` [ONC0005326, cinoctramide] is higher in “% viability” value: 61.22% for the first, 67.25% for the second.

Compared with `CNCCN(C)Cc1c[nH]nc1-c1ccc(O[C@H]2C[C@H](OCCC3CCOCC3)C2)cc1.Cl` [ONC0000962, epz020411 hydrochloride], `CN(C)CC/C=C1/c2ccccc2COc2ccc(CC(=O)O)cc21` [ONC0004990, olopatadine hydrochloride opatanol] is higher in “% viability” value: 79.33% for the first, 101% for the second.

Compared with `CC(=O)N(CC(O)CN(C(C)=O)c1c(I)c(C(=O)NCC(O)CO)c(I)c(C(=O)NCC(O)CO)c1I)c1c(I)c(C(=O)NCC(O)CO)c(I)c(C(=O)NCC(O)CO)c1I` (stereo not drawn) [ONC0004142, iodixanol], `CC[C@H](C)C[C@H](C)CCCCCCCCC(=O)N[C@H]1C[C@@H](O)[C@@H](NCCN)NC(=O)[C@@H]2[C@@H](O)CCN2C(=O)[C@H]([C@H](O)CCN)NC(=O)[C@H]([C@H](O)[C@@H](O)c2ccc(O)cc2)NC(=O)[C@@H]2C[C@@H](O)CN2C(=O)[C@H]([C@@H](C)O)NC1=O` [ONC0004327, caspofungin acetate] is lower in “% viability” value: 136.3% for the first, 124.4% for the second.

Compared with `O=C1CCCC(=O)C1C(=O)c1ccc(C(F)(F)F)cc1[N+](=O)[O-]` [ONC0002397, nitisinone], `Fc1ccc(CN2CCC(Nc3ccc(C(F)(F)F)nn3)CC2)cc1F` [ONC0003766, jnj37822681] is lower in “% viability” value: 105.1% for the first, 83.83% for the second.

Going from `NC(CC(F)C(=O)O)C(=O)O` (stereo not drawn) [ONC0003677, 4fluorodlglutamic acid] to `O=C1O[C@@H](CO)[C@H](O)[C@@H](O)[C@@H]1O` [ONC0003123, gluconolactone], the “% viability” value rises from 63.49% to 67.77%.

First: c1nc(CC2CCNCC2)c[nH]1 [ONC0002513, immepip]
Second: C[C@H]1CC[C@H](n2c3cnccc3c3cnc(Nc4ccc5c(n4)CCN(C(=O)CO)C5)nc32)CC1 [ONC0002264, amg 925]
The “% viability” value of the first is lower: 60.16% for the first, 79.7% for the second.

Going from `CN(C)Cc1ccc(S(=O)(=O)n2ccc(/C=C/C(=O)NO)c2)cc1` [ONC0005234, resminostat ras2410] to `c1ccc(CN(CC2=NCCN2)c2ccccc2)cc1` [ONC0003232, antazoline phosphate], the “% viability” value falls from 190.8% to 94.34%.

Compared with `O=S(=O)(O)CC(S)CS` (stereo not drawn) [ONC0002911, dmps], `NC(=O)OCCCc1ccccc1` [ONC0003674] is lower in “% viability” value: 98.97% for the first, 51.8% for the second.

First: CC(=O)O[C@]1(C(C)=O)CC[C@H]2[C@@H]3CCC4=CC(=O)CC[C@]4(C)[C@H]3CC[C@@]21C [ONC0002124, hydroxyprogesteroneacetate]
Second: C[C@H]1CC2C3CCC4=CC(=O)C=C[C@]4(C)[C@@]3(F)[C@@H](O)C[C@]2(C)[C@@]1(O)C(=O)CO (stereo partly drawn) [ONC0003301, betamethasone]
The “% viability” value of the first is higher: 61.66% for the first, 54.24% for the second.

Going from `CNC(=O)[C@H]1O[C@@H](n2cnc3c(NCc4cccc(I)c4)ncnc32)[C@H](O)[C@@H]1O` [ONC0001664, ibmeca] to `CC(C)C(=O)OC[C@H]1O[C@@H](n2ccc(N)nc2=O)[C@](C)(F)[C@@H]1OC(=O)C(C)C` [ONC0001098, mericitabine], the “% viability” value falls from 70.88% to 60.9%.

Compared with `C=C1C(=O)[C@]23[C@H](O)[C@H]1CC[C@@H]2[C@@]12CO[C@]3(O)C[C@@H]1C(C)(C)CC[C@@H]2O` [ONC0004938, oridonin isodonol], `CCN(CC)CCOC(=O)C1(c2ccccc2)CCCC1` [ONC0002837, caramiphen parpanil] is higher in “% viability” value: 72.08% for the first, 99.65% for the second.

First: C=CCN1CCN(c2nc3ccccc3nc2C#N)CC1 [ONC0003610, 3aqc]
Second: COc1ccc(C[C@@H](C)[C@@H](C)Cc2ccc(OC)c(OC)c2)cc1OC [ONC0005582, terameprocol]
The “% viability” value of the first is lower: 60.26% for the first, 82.28% for the second.

With `N=C(N)N` [ONC0003274, guanidine hydrochloride] the “% viability” value was 94.58%.
